PubChem BioAssay AID1347075 (National Center for Advancing Translational Sciences (NCATS), 2019)
About 5,500 (1.4%) of roughly 400,000 compounds were called active. Inconclusive results, whose numbers are uncertain, are shown with a selection of clear calls. Calls follow the shape of the dose curve; as a rule, active = well fitted cell-killing curve with a large enough effect; inconclusive = small, poorly fitted or top-dose-only effect, or effect the other way; inactive = flat fitted curve, though single readings scatter. Potencies of inconclusive entries are doubtful fits and often do not repeat.

Assay: qHTS assay for MDR1-selective chemotherapeutics: Primary screen using the parental adenocarcinoma cell KB-3-1; also: nearly all actives have a fitted effect of over 60% in size
Conditions: KB-3-1 viability, CellTiter-Glo ATP luminescence, 72 h; activity change, negative = cytotoxic: at 46.1 µM (top of the series)
Outline: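 72 h, 37 °C compound treatment of KB-3-1 parental cells; CellTiter-Glo added, 10 min, luminescence read. Data corrected against DMSO-only plates and normalized before curve fitting.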
% is scaled to controls: 0 for no effect and ±100 for the full control effect; potency is read from the fitted curve at half-maximal effect.

SMILES | activity change, negative = cytotoxic | Potency
O=C(NCc1ccc(Cl)cc1)C1CCN(C(=O)c2cnn(-c3ccccc3)c2-n2cccc2)CC1 | inactive: -1.11% | 
CCOc1ccc(CNC(=O)Cn2nc(N3CCN(c4ccccc4)CC3)ccc2=O)cc1 |  | inconclusive: 18.4 µM [cytotoxic, single point]
CCCC[n+]1ccn(C2=C([O-])c3ccccc3C(=O)/C2=N\S(=O)(=O)c2ccccc2)c1 |  | inconclusive: 22.4 µM [cytotoxic, single point]
CCOC(=O)c1csc(NC(=O)c2ccc(OCC)cc2)n1 |  | inconclusive: 8.2 µM [cytotoxic, partial curve, poor fit]
CN(C)S(=O)(=O)c1ccc(NC(=O)Cn2nc(-c3ccc4c(c3)OCCO4)ccc2=O)cc1 |  | inconclusive: 16.4 µM [cytotoxic, single point]
O=C(C1CCC(Cn2c(=S)[nH]c3ccccc3c2=O)CC1)N1CCN(c2ccccn2)CC1 (configuration not stated) |  | inconclusive: 20.6 µM [cytotoxic, single point]
CCOc1ccc(-n2c(-c3ccccc3)c[n+]3c2CCCCC3)cc1 |  | active: 10.3 µM
CCCOc1ccc(CNC(=O)CCCN2C(=O)CSc3c2c(C)nn3-c2ccccc2)cc1 | inactive: -1.61% | 
CCOc1ccc(C(=O)N2CCN(S(=O)(=O)c3ccc4c(c3)OCCO4)CC2)cc1OCC | inactive: -0.244% | 
Cc1cc2oc(=O)cc(CN3CCN(c4ccc(Cl)c(Cl)c4)CC3)c2cc1Cl | inactive: 0.0466% | 
CCOC(=O)c1ccc(N2C(=O)c3n[nH]c(-c4ccco4)c3C2c2cccc([N+](=O)[O-])c2)cc1 (configuration not stated) |  | inconclusive: 29.1 µM [cytotoxic, single point]
N#Cc1cccc(NC(=O)C2CCN(S(=O)(=O)c3ccc4c(c3)CCCN4C(=O)C3CCC3)CC2)c1 |  | inconclusive: 18.4 µM [cytotoxic, single point]
CCN1CCN(c2cc(C)c3cc(NC(=O)Cc4ccc(OC)c(OC)c4)ccc3n2)CC1 | inconclusive: -76.8% | 
CC1=C(C(=O)OCCOc2ccccc2)C(c2ccc(C)o2)C2=C(CC(C)(C)CC2=O)N1 (configuration not stated) |  | inconclusive: 29.1 µM [cytotoxic, single point]
COc1ccc(NC(=O)c2cc(-c3ccc(F)cc3OC(C)C)n[nH]2)cn1 | inconclusive: 0% | 
Cc1ccc2oc(C(=O)NCC(c3ccc(Cl)cc3)N3CCOCC3)c(C)c2c1 (configuration not stated) | inactive: -11.5% | 
CCCCOC(=O)CCc1c(C)[nH]c(=S)[nH]c1=O |  | inconclusive: 14.6 µM [cytotoxic, partial curve, poor fit]
COc1cc(C(N)=O)cc(Cl)c1OCc1ccccc1 |  | inconclusive: 16.4 µM [cytotoxic, single point]
CSc1ccccc1OCc1cc(C(=O)NCCC2=CCCCC2)no1 | inactive: 2.76% | 
CC(=O)N1c2ccc(S(=O)(=O)N3CCCC(C(=O)Nc4ccc(C)cc4C)C3)cc2CC1C (configuration not stated) |  | inconclusive: 10.3 µM [cytotoxic, partial curve]
CN(Cc1ccccc1)C(=O)CCCn1c(=O)c2cccn2c2cccnc21 |  | inconclusive: 18.4 µM [rising, partial curve, poor fit]

Reprinted from the results shown, two compounds:
SMILES | activity change, negative = cytotoxic | Potency
O=C(NCc1ccc(Cl)cc1)C1CCN(C(=O)c2cnn(-c3ccccc3)c2-n2cccc2)CC1 | inactive: -1.11% | 
CCOc1ccc(CNC(=O)Cn2nc(N3CCN(c4ccccc4)CC3)ccc2=O)cc1 |  | inconclusive: 18.4 µM [cytotoxic, single point]

More results

SMILES | activity change, negative = cytotoxic | Potency
Cc1ccc(S(N)(=O)=O)cc1NC(=O)c1c(-c2c(Cl)cccc2Cl)noc1C | inactive: 1.17% | 
CC1=C(C(=O)Nc2ccccc2C)C(c2sccc2C)n2ncnc2N1 (configuration not stated) | inactive: -1.22% | 
CN(c1ccccc1)S(=O)(=O)c1ccc(Cl)c(C(=O)Nc2ccc(-c3nc4ccccc4[nH]3)cc2)c1 |  | inconclusive: 29.1 µM [cytotoxic, single point]
COc1ccc(C2C(C(=O)N3CCN(c4ccccc4F)CC3)c3ccccc3C(=O)N2C)cc1 (configuration not stated) |  | inconclusive: 29.1 µM [cytotoxic, single point]
COc1ccc(-c2cc(C(=O)N3CC(C)CC(C)C3)c3ccccc3n2)cc1OC (configuration not stated) | inactive: -25.3% | 
Cc1cnc(CNC(=O)c2csc([C@@H]3C[C@H](O)[C@@H](CO)O3)n2)cn1 |  | inconclusive: 0.0058 µM [rising, full curve]
CCn1nnc(NC(=O)c2ccc(-c3ccccc3[N+](=O)[O-])o2)n1 |  | inconclusive: 0.92 µM [rising, full curve]
Cc1cc(C)cc(-n2c(C)cc(/C=N/NC(=O)CN(c3c(C)cccc3C)S(C)(=O)=O)c2C)c1 |  | inconclusive: 29.1 µM [cytotoxic, single point]
COc1cc(NC(=O)C(c2ccccc2)c2ccccc2)c(C(=O)O)cc1OC | inactive: 1.98% | 
O=C(Nc1cccc(C(=O)N2CCCc3ccccc32)c1)c1ccccc1 |  | inconclusive: 20.6 µM [cytotoxic, single point]
Cc1ccc(C)c2c1cc(C)c1nnc(SCC(=O)N3CCCc4ccccc43)n12 |  | inconclusive: 23.1 µM [rising, partial curve, poor fit]
CC(=O)c1cccc(NC(=O)C2CCN(c3nnc(-n4cccc4)s3)CC2)c1 |  | inconclusive: 0.0065 µM [cytotoxic, full curve]
CC(C)C[C@@H]1Cc2[nH][nH]c(=O)c2[C@H](c2ccc(Cl)cc2)O1 | inactive: 7.05% | 
Cc1ccccc1Cn1c(=O)n(CCCCC(=O)NCc2ccc3c(c2)OCO3)c(=O)c2ccccc21 |  | inconclusive: 16.4 µM [cytotoxic, single point]
CN(C)Cc1nc2ccccc2c(=O)n1Cc1nc(-c2cc3ccccc3o2)cs1 |  | inconclusive: 29.1 µM [cytotoxic, single point]
Nc1nc2c(nnn2C2CC(O)C(CO)O2)c(=O)[nH]1 (configuration not stated) |  | active: 2.31 µM
CCOc1cc(/C=N/O)ccc1OCc1ccc(C)cc1 |  | inconclusive: 29.1 µM [cytotoxic, single point]
COc1cc(/C=N/NC(=O)c2ccc(CN3C(=O)c4cccc5cccc3c45)cc2)cc(OC)c1O |  | inconclusive: 13 µM [cytotoxic, partial curve, poor fit]
COc1ccc(S(=O)(=O)Nc2c(C)n(C)n(-c3ccccc3)c2=O)cc1Br |  | inconclusive: 29.1 µM [rising, single point]
CCCCNCc1ccc(SC)cc1 |  | inconclusive: 29.1 µM [cytotoxic, single point]
O=C(NC1CCCc2c1cnn2-c1ccccc1F)c1ccncc1 (configuration not stated) |  | inconclusive: 3.66 µM [cytotoxic, partial curve, poor fit]
